In this test the target is CDK1 (human (endogenous in PC9 and H358)) (UniProt P06493). Briefly: affinity purification with mass spectrometry; CDK1 co-IP with LC/MS in LINC00880-overexpressed LUAD cells.

Sequences of proteins named here, by UniProt entry; tags and fusion partners are left off.
UniProt P06493: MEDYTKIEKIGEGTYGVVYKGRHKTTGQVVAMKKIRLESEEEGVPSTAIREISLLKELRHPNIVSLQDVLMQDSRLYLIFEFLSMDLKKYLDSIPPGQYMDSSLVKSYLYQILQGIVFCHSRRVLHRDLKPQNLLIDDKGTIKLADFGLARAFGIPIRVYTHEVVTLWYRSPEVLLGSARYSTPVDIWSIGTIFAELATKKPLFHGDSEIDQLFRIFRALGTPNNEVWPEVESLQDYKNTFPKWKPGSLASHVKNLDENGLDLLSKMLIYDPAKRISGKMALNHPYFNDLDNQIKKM

No constants are given. Whether binding was seen depends on the method and setting. In cells and extracts the contact can be indirect. These calls come from enrichment with a bait or labelling near it, and not all partners need be listed.

Among the data in article PMC10449921 are binding values, retold here.

B1: PRDX1 (protein, UniProt Q06830 1-199)
chain: MSSGNAKIGHPAPNFKATAVMPDGQFKDISLSDYKGKYVVFFFYPLDFTFVCPTEIIAFSDRAEEFKKLNCQVIGASVDSHFCHLAWVNTPKKQGGLGPMNIPLVSDPKRTIAQDYGVLKADEGISFRGLFIIDDKGILRQITVNDLPVGRSVDETLRLVQAFQFTDKHGEVCPAGWKPGSDTIKPDVQKSKEYFSKQK
For the molecule B1, the binding entry was “binds”.
